Test: Boc solid-phase peptide synthesis; MBHA resin; DIC/HOBt
Details: whole synthesis, scale of the general procedure 100 mg resin

In the case of “Ac-Nle-Gln-His-(D)Phe-Arg-(D)Trp-Gly-NH2”, the “crude purity (method not given)” value is reported as “approximately 80 to 90% pure”.

From patent US6534503B1 (Lion Bioscience AG, priority 1998, dated 2003)
